Values from PubChem BioAssay AID504804 (Drosophila RNAi Screening Center, 2011).

Assay: 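Fly genes whose loss lessens doxorubicin-driven cell death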 (primary screen)
Cell system: Drosophila Kc cells
Reagents: long dsRNA against Drosophila genes, 0.5 µg dsRNA per well
Timing: 96 h (48 h knock-down, then 48 h drug)
Treatment: doxorubicin 5 µg/ml for 48 h, added 48 h after dsRNA
Read-out: 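Luminescent ATP counts per replicate, not normalised, reflecting viable cells after 48 h dsRNA knock-down followed by 48 h of 5 µg/ml doxorubicin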
Reading the numbers: raw ATP luminescence: higher = more viable cells, protection from doxorubicin
Active means: 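z-score of 2 or more over plate mean in both duplicates, retained only when retests and separate dsRNAs confirm the protection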
The screen tested about 19,000 reagents; below is an unselected part of those with a known target gene and a result. Of all reagents, 47 (0.25%) were called active. 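Signals are raw, not normalised; exact z-scores behind calls not deposited; actives needed confirmation, so some wells reaching 2 SD are inactive.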 Unmarked entries are inactive. Names joined by + are all predicted targets of the reagent.

The first 5 entries as a preview:
gene	dsRNA	raw ATP luminescence, replicate 1	raw ATP luminescence, replicate 2
Cpr76Bc (Cuticular protein 76Bc)	DRSC11062	72993	61693
CG13398	DRSC02268	39930	79333
CG12540	DRSC19471	3.25e5	3.18e5
Lim3	DRSC02475	57337	49400
Lim3	DRSC03363	46123	44727

The listing, repeating the preview:
gene	dsRNA	raw ATP luminescence, replicate 1	raw ATP luminescence, replicate 2
Cpr76Bc (Cuticular protein 76Bc)	DRSC11062	72993	61693
CG13398	DRSC02268	39930	79333
CG12540	DRSC19471	3.25e5	3.18e5
Lim3	DRSC02475	57337	49400
Lim3	DRSC03363	46123	44727
CASK	DRSC14588	65940	76720
CASK	DRSC16597	53980	57720
CASK	DRSC16598	53620	61420
alphaSnap (alpha Soluble NSF attachment protein)	DRSC11285	36547	37277
CG13561	DRSC04199	36773	42503
smo (smoothened)	DRSC00837	95480	72970
CtsF (Cathepsin F)	DRSC12056	73513	75593
CtsF (Cathepsin F)	DRSC12195	46870	56160
CtsF (Cathepsin F)	DRSC12196	76093	59213
sub (subito)	DRSC06125	66360	52067
CG13065	DRSC09948	52157	28490
CG32100	DRSC09725	62690	54693
CG32100	DRSC10331	73053	57910
CycD (Cyclin D)	DRSC20233	3.01e5	2.67e5
CG31886	DRSC03248	61913	58310
CG40198	DRSC21068	1.86e5	1.93e5
CG11475	DRSC04113	73293	75967
Ubc7 (Ubiquitin conjugating enzyme 7)	DRSC20299	3.45e5	2.91e5
nan (nanchung)	DRSC10551	55357	50010
Dhod (Dihydroorotate dehydrogenase)	DRSC16647	60277	30567
CG5597	DRSC04517	76450	68647
Elk (Eag-like K[+] channel)	DRSC07608	68670	65073
CG17075	DRSC00483	1.00e5	70120
Klp59C (Kinesin-like protein at 59C)	DRSC04348	61153	63303
Gmppb (GDP-mannose pyrophosphorylase B)	DRSC12169	48617	35723
ck (crinkled)	DRSC03509	63897	48760
HP1c (Heterochromatin Protein 1c)	DRSC16166	56963	61887
awd (abnormal wing discs)	DRSC16906	61900	60970
Muc96D (Mucin 96D)	DRSC13709	2.46e5	2.18e5
Ing5 (Inhibitor of growth family member 5)	DRSC03188	80300	88297
Uba3 (Ubiquitin-like activating enzyme 3)	DRSC06377	61733	58790
Hsp60B (Heat shock protein 60B)	DRSC00542	1.08e5	71233
nAChRalpha7 (nicotinic Acetylcholine Receptor alpha7)	DRSC20078	3.32e5	3.14e5
nAChRalpha7 (nicotinic Acetylcholine Receptor alpha7)	DRSC20081	3.27e5	3.09e5
Uros2 (Uroporphyrinogen III synthase 2)	DRSC16505	69140	51590
bowl	DRSC00805	1.03e5	63820
CG13700	DRSC10049	74387	46130
CG13506	DRSC04150	60790	48200
nclb (no child left behind)	DRSC07009	37873	69907
dare (defective in the avoidance of repellents)	DRSC07602	63260	55827
KrT95D (Krueppel target at 95D)	DRSC16725	35427	47557
MED25 (Mediator complex subunit 25)	DRSC14483	16200	18690
CG45002	DRSC20144	3.06e5	3.19e5
Csgalnact (Chondroitin sulfate N-acetylgalactosaminyltransferase)	DRSC06228	51500	66600
CG1116	DRSC12166	60940	58323
Cul2 (Cullin 2)	DRSC03710	58103	61267
Ugt316A1 (UDP-glycosyltransferase family 316 member A1)	DRSC10376	71447	57857
CG15449	DRSC20521	2.81e5	3.06e5
CG42369	DRSC03244	24417	31423
CG32212 + hpRNA:CR33940	DRSC09618	60680	80163
CG10801	DRSC17761	64310	50800
CG4892	DRSC01937	84040	83570
